These results are taken from US20250263437A1 (Sichuan Gooddoctor Panxi Pharmaceutical Co., Ltd., priority 2021, published 2025).

Where no end group is shown, it is not given here.

This data set in a line: general procedure: Fmoc solid-phase peptide synthesis; 2-chlorotrityl chloride resin (SD=0.75 mmol/g); DIC/HOBt. Particulars: for step yield: purification step; for final purity (method not given): whole synthesis, scale of the general procedure 13.48 g of resin in six synthesis tubes, Acetate.

With RKDVYEAEAKGKAE, the step yield was determined as 39.4% and the “final purity (method not given)” value turned out to be 99.71%.

Take SMQASLEAEAKGKAQE: the step yield came to 5.2% and the “final purity (method not given)” value turned out to be 98.43%.

As for SMQASLEADAKGKAE, the step yield came out at 21.1% and the “final purity (method not given)” value is 99.74%.

Take SMQATLEAEAKGKAE: the step yield was determined as 19.7% and the “final purity (method not given)” value was found to be 100%.

Take SMQASLEAEAKGKAN: the step yield turned out to be 4.4% and the “final purity (method not given)” value was determined as 98.37%.

As to SLQASLEAEAKGKAE, the “final purity (method not given)” value is 100%.

In the case of “Glu-Ala-Glu-Ala (EAEA; printed: Glu-Ala-Glu-Ala)”, the step yield is listed as 36.6% and the “final purity (method not given)” value amounted to 100%.

In the case of SIQASLEAEAKGKAE, the step yield was 17.2% and the “final purity (method not given)” value amounted to 100%.

With EAEAAGKAE, the step yield came to 41.1% and the “final purity (method not given)” value was 98.36%.

For “Gln-Ala-Ser-Leu (QASL; printed: Gln-Ala-Ser-Leu)”, the step yield was found to be 58.4% and the “final purity (method not given)” value worked out at 98.41%.

In the case of QASLEAEAKGKAE, the step yield stood at 14.3% and the “final purity (method not given)” value is listed as 97.45%.

As to SAQASLEAEAKGKAE, the “final purity (method not given)” value worked out at 100%.

As to SMQASLEAEAKAKAE, the step yield is 14.0% and the “final purity (method not given)” value is reported as 97.54%.

Turning to SMAASLEAEAKGKAE, the “final purity (method not given)” value came out at 100%.

Take SMQASLEAEAAGKAE: the step yield was found to be 17.5% and the “final purity (method not given)” value was 100%.

Consider SMQASLEAEAKGKAQD, for which the step yield was 6.7% and the “final purity (method not given)” value turned out to be 100%.

Regarding SMQASLEAEAKGKAEL, the step yield is on record as 5.6% and the “final purity (method not given)” value is reported as 100%.

For SMQASLEAEAKGHAE, the step yield is on record as 4.1% and the “final purity (method not given)” value was 99.74%.

Consider SMQASL, for which the step yield is on record as 62.9% and the “final purity (method not given)” value was 100%.

With SMQASVEAEAKGKAE, the step yield is reported as 11.7% and the “final purity (method not given)” value was determined as 100%.

With TASTLEAEAKGKAE, the step yield stood at 18.9% and the “final purity (method not given)” value worked out at 99.74%.

As for SMQASLEALAKGKAE, the step yield is on record as 14.1% and the “final purity (method not given)” value amounted to 99.69%.

With SMQASLEAESKGKAE, the step yield is on record as 8.2% and the “final purity (method not given)” value worked out at 100%.
